# In US20030148381A1:
# Results are given in words; binding and its absence hold for the method and conditions named.
# B1: harmonin PDZ2 domain (amino acids 189-307) (protein, mouse, UniProt Q9ES64 189-307, looked up, not shown: a dimerising Fc or GST)
# chain: VSESGGVRGGLGSPGNRTTKEKKVFISLVGSRGLGCSISSGPIQKPGIFVSHVKPGSLSAEVGLETGDQIVEVNGIDFTNLDHKEAVNVLKSSRSLTISIVAGAGRELFMTDRERLEEA
# Target: his-tagged myosin VIIa C-terminal tail fragment (C-terminal MyTH4+FERM repeat) (zebrafish)
# Assay: in vitro binding with constructs expressing harmonin PDZ domains
binder,measurement,value
B1,binding,no binding
